A short description of this test: qHTS Assay for Modulators of Lamin A Splicing. The following applies: HeLa LMNA splicing GFP/RFP minigene ratio, 48 h. The procedure, abridged:
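S3 HeLa stable clones carrying a lamin A-EGFP splicing minigene plus DsRed2 were seeded at 600 cells/well in Opti-MEM with 2% FBS, pin-dosed and incubated 48 h at 37°C. Acumen cytometry (488 nm) gave the GFP/RFP total-intensity ratio.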

The mark [1] stands for this setting: measured here: RFP viability control channel.
[2] abbreviates: measured here: GFP splicing reporter channel.

SMILES strings stand for the structures. Where “and” joins values, the source holds several entries; their conditions need not be identical. Equal values may be shown once. The list shows a part of the results. Further columns of the screen follow, without active or inactive calls. Compounds called inactive in the main read-out are mostly missing here. Words in brackets tell the shape of the fitted curve; partial curves, single points and poor fits give uncertain potencies.

Regarding `CCNc1nnc(CSc2nc3ccccc3s2)s1`, the concentration at half-maximal activity (AC50) under setting [1] is 35.5 µM [rising, partial curve].

In the case of `CC(C)Cn1c(N)c(C(=O)CSc2ccc3c(c2)OCCO3)c(=O)n(C)c1=O`, under setting [1], the AC50 is 3.98 µM [falling, partial curve].

With `N#C/C(=N/O)c1nc(-c2ccc(F)cc2)cs1`, the AC50 is 22.4 µM [rising, partial curve, poor fit] under setting [2] and 35.5 µM [rising, single point] under setting [1].

`CCOC(=O)Nc1nc(-c2ccccc2)c(C(=O)c2ccc(Cl)cc2)s1`: the AC50 runs as follows: under setting [2], 3.98 µM [rising, single point]; under setting [1], 1.26 µM [rising, partial curve].

For `CC(C)(C)N(Cc1cc2ccccc2[nH]c1=O)C(=O)C1CCCCC1`, the half-maximal activity concentration (AC50) reads like this: under setting [2], 0.0891 µM [falling, full curve]; under setting [1], 0.0708 µM [falling, full curve].

For the molecule `Cc1c(/C=N/O)c2ccccn2c1C=O`, the concentration at half-maximal activity (AC50) was 3.98 µM [falling, single point] under setting [2] and 3.16 µM [falling, single point] under setting [1].

`CCOC(=O)C1CCN(C(=O)c2sc3nc(-c4ccc(F)cc4)cn3c2C)CC1`: the AC50 runs as follows: under setting [2], 5.62 µM [rising, partial curve]; under setting [1], 11.2 µM [rising, partial curve].

With `O=C(Nc1cccc2c1CCCC2)c1cc([N+](=O)[O-])ccc1Cl`, the concentration at half-maximal activity (AC50) reads like this: under setting [2], 31.6 µM [falling, single point]; under setting [1], 15.8 µM [falling, single point].

As to `CCOC(=O)N1N=C(C)CC1(O)c1ccc(Cl)cc1` (stereo not given), the AC50 under setting [2] was 35.5 µM [falling, partial curve, poor fit].

Regarding `COc1ccc(N(CC(=O)Nc2ccc3c(c2)OCCO3)S(C)(=O)=O)c(OC)c1`, the AC50 is 0.355 µM [falling, partial curve] under setting [2] and 2.51 µM [falling, single point] under setting [1].

As to `Cc1nc2ccccc2n1CCc1nc2c3ccccc3nc(SCC(=O)Nc3cccc(C(F)(F)F)c3)n2n1`, the AC50 under setting [2] was 10 µM [falling, partial curve] and the AC50 under setting [1] was 10 µM [falling, single point].

For `COC(=O)c1c(NC(NC(=O)c2ccccc2)(C(F)(F)F)C(F)(F)F)sc2c1CCN(C)C2`, under setting [1], the AC50 is 31.6 µM [rising, single point].

Regarding `Cc1nc(Nc2ccc(Cl)c(Cl)c2)sc1C(=O)Nc1ccccc1`, the AC50 runs as follows: under setting [2], 14.1 µM [rising, single point]; under setting [1], 25.1 µM [rising, single point].

Regarding `COc1cccc(CC(=S)N2CCOCC2)c1`, the AC50 under setting [2] was 2.82 µM [falling, partial curve].

Turning to `CCOC(=O)c1cnc2c(OC)cccc2c1N1CCN(c2ccccc2OC)CC1`, under setting [1], the AC50 was 15.8 µM [rising, single point].

As to `CCCc1nc2ccccc2c(=O)n1/N=C/c1ccc(O)cc1O`, the AC50 under setting [2] is 12.6 µM [rising, partial curve, poor fit] and the half-maximal activity concentration (AC50) under setting [1] was 25.1 µM [rising, single point].

With `Cc1ccc2nc(-c3ccc(NC(=O)COC(=O)c4ccco4)cc3)sc2c1`, the AC50 is, setting by setting: under setting [2], 11.2 µM [rising, single point]; under setting [1], 14.1 µM [rising, single point].

Regarding `CC(CCCC(C)(C)O)NC(=O)c1ccc(OC2CCN(C(=O)C3CC3)CC2)cc1` (stereo not given), under setting [1], the half-maximal activity concentration (AC50) is 0.251 µM [falling, full curve, poor fit].

As to `COC(=O)/C=C\C(=O)Nc1cccc([N+](=O)[O-])c1`, under setting [2], the AC50 is 35.5 µM [falling, single point].

`Cc1cc(C)cc(NC(=O)CSc2ccc(-c3ccco3)nn2)c1`: the AC50 under setting [1] is 35.5 µM [rising, single point].

With `COc1ccc(N2CCN(C(c3nnnn3CCc3ccccc3)C(C)C)CC2)cc1` (stereo not given), under setting [1], the AC50 is 35.5 µM [rising, single point].

For the molecule `CCOc1ccc2c(c1)C(C)=CC(C)(C)N2`, the AC50 by setting is: under setting [2], 0.141 µM [falling, full curve]; under setting [1], 891 nM [falling, full curve, poor fit] and 14.1 µM [rising, single point].

For the molecule `CNC(=O)COC(=O)/C=C/c1cccs1`, the AC50 under setting [1] was 0.316 µM [rising, full curve].

Consider `CS(=O)(=O)c1ccc(Sc2nc3ccccc3s2)c([N+](=O)[O-])c1`, for which the AC50 is, setting by setting: under setting [2], 35.5 µM [falling, single point]; under setting [1], 2 µM [rising, partial curve].

On to `CC(=O)Nc1sc2c(c1C(c1cccs1)N1CCOCC1)CCCC2` (stereo not given), for which, under setting [1], the concentration at half-maximal activity (AC50) is 11.2 µM [rising, partial curve].

Turning to `O=C(C1CCN(c2nnc(N3CCCC3=O)s2)CC1)N1CCN(Cc2ccc3c(c2)OCO3)CC1`, the AC50 under setting [1] is 11.2 µM [rising, partial curve].

Turning to `COc1cc2c(cc1OC)C(c1ccc(-c3cc(Cl)ccc3Cl)o1)=NCC2`, the concentration at half-maximal activity (AC50) under setting [2] is 0.355 µM [falling, full curve] and the AC50 under setting [1] was 0.0891 µM [falling, full curve, poor fit].

Regarding `Cc1cc(C)cc(NC(=O)c2sc3nc4n(c(=O)c3c2C)N=C(c2ccccc2)CS4)c1`, the concentration at half-maximal activity (AC50) reads like this: under setting [2], 0.0316 µM [rising, full curve, poor fit]; under setting [1], 12.6 µM [rising, partial curve, poor fit].

Regarding `O=C(Nc1cccc(F)c1)N1CC=C(c2ccc(Cl)cc2)CC1`, the concentration at half-maximal activity (AC50) under setting [2] is 12.6 µM [rising, partial curve, poor fit] and the concentration at half-maximal activity (AC50) under setting [1] was 22.4 µM [rising, single point].

`Nc1c(C(=O)Nc2cccc(F)c2)nnn1-c1cccc(C(F)(F)F)c1`: the AC50 runs as follows: under setting [2], 0.0708 µM [falling, full curve, poor fit]; under setting [1], 0.794 µM [falling, full curve].

In the case of `COc1ccc(/C=N/OCC(=O)NC(c2ccccc2)c2ccccc2)cc1OC`, the AC50 under setting [1] was 1.26 µM [rising, full curve].

Take `O=C(O)c1ccc(CSc2nnc(-c3cccnc3)n2-c2ccc(Br)cc2)cc1`: the AC50 by setting is: under setting [2], 7.94 µM [rising, partial curve, poor fit]; under setting [1], 3.98 µM [rising, full curve].

With `Cc1nc2c(c3c1[nH]c1ccccc13)C(O)CC(C)(C)C2` (stereo not given), the concentration at half-maximal activity (AC50) under setting [1] was 35.5 µM [rising, single point].

As to `CCN(CC)CCNc1ccnc2cc(Cl)ccc12`, the concentration at half-maximal activity (AC50) under setting [1] was 7.08 µM [rising, partial curve].

Consider `CC(=O)Nc1ccc2nc(SCC(=O)O)sc2c1`, for which the concentration at half-maximal activity (AC50) under setting [1] was 0.00398 µM [falling, full curve, poor fit].

`O=C(CSc1nnc(CNc2ccc(F)cc2)o1)c1ccccc1`: the half-maximal activity concentration (AC50) under setting [2] was 0.251 µM [falling, full curve, poor fit].

Consider `O=C(O)CSc1cc(C(=O)c2ccccc2O)cn2c(=O)c3c(-c4ccccc4)csc3nc12`, for which the AC50 under setting [1] is 20 µM [rising, single point].

With `O=C(c1ccc2c(c1)OCO2)C1CCCN(C(=O)NCc2ccccc2)C1` (stereo not given), the AC50 was 1 µM [rising, full curve, poor fit] under setting [2] and 1 µM [rising, full curve, poor fit] under setting [1].

As to `Cc1c(C(=O)O)cnc2cc(-c3ccc(Cl)cc3)nn12`, the concentration at half-maximal activity (AC50) under setting [1] is 0.708 µM [rising, full curve, poor fit].

Regarding `CC(=O)Nc1ccc(S(=O)(=O)NCC2CCC(C(=O)NC3CCCCCC3)CC2)cc1` (stereo not given), the AC50 under setting [2] is 6.31 µM [rising, partial curve, poor fit].

With `N#CCCN1CCN(C(=S)c2ccc(-c3cccc(Cl)c3)o2)CC1`, under setting [1], the AC50 is 14.1 µM [rising, single point].

For `CCOC(=O)c1c(C)[nH]c(C(=O)CSc2nnc(CC(C)c3ccccc3)o2)c1C` (stereo not given), the half-maximal activity concentration (AC50) under setting [1] was 15.8 µM [rising, single point].

Turning to `O=C(NCc1ccco1)C(c1cccs1)N(C(=O)C1COc2ccccc2O1)c1cccc(O)c1` (stereo not given), under setting [1], the AC50 is 1.26 µM [rising, full curve, poor fit].

For `O=C(CSc1nc2ccccc2c(=O)n1-c1ccc(Cl)cc1)N/N=C/C=C/c1ccccc1[N+](=O)[O-]`, under setting [1], the concentration at half-maximal activity (AC50) was 0.01 µM [rising, full curve, poor fit].

Consider `COc1ccc(/C=N/Nc2ncnc3sc4c(c23)CCCC4)cc1O`, for which the half-maximal activity concentration (AC50) is, setting by setting: under setting [2], 11.2 µM [rising, partial curve]; under setting [1], 14.1 µM [rising, partial curve].

For the molecule `Cc1cc(C)nc(SCc2nnc(SCc3ccc([N+](=O)[O-])cc3)n2Cc2ccco2)n1`, the AC50 was 11.2 µM [rising, partial curve] under setting [2] and 20 µM [rising, partial curve, poor fit] under setting [1].

For the molecule `O=C(Nc1ccc(NC(=O)c2ccco2)c(Cl)c1)c1cccc([N+](=O)[O-])c1`, under setting [1], the AC50 is 20 µM [rising, single point].

As for `CC1(C)[C@H]2CC=C(CN3CCC(N4CCC(C(=O)N5CCCC5)CC4)CC3)[C@@H]1C2`, the AC50 under setting [2] is 6.31 µM [rising, single point].

Take `Cc1sc(NC(=O)/C=C/c2ccc3c(c2)OCO3)nc1-c1ccccc1`: the half-maximal activity concentration (AC50) under setting [2] was 0.355 µM [rising, partial curve].

For `O=C(CO)N/N=C/c1c2ccccc2cc2ccccc12`, the AC50 under setting [1] is 6.31 µM [rising, partial curve, poor fit].

Turning to `CN(CC1CCCO1)S(=O)(=O)c1ccc(C(=O)Nc2nc(-c3ccccn3)cs2)cc1` (stereo not given), the AC50 under setting [1] was 3.98 µM [rising, full curve].

In the case of `O=C1NN=C(c2ccccc2)CC1c1c[nH]c2ccccc12` (stereo not given), under setting [1], the half-maximal activity concentration (AC50) is 0.355 µM [rising, partial curve].

Consider `Cn1c(NC(=O)c2ccc(S(=O)(=O)N3CCCCC3)cc2)cc(=O)n(C)c1=O`, for which, under setting [2], the AC50 is 35.5 µM [rising, single point].

With `O=S(Cc1ccc(Br)cc1)Cc1nnc(SCc2c(Cl)cccc2Cl)n1-c1ccccc1` (stereo not given), the AC50 under setting [2] was 35.5 µM [falling, single point].

Source of the values: PubChem BioAssay AID1487 (National Center for Advancing Translational Sciences (NCATS), 2009).
